Results from the supplement of paper PMC12819154, “High-throughput peptide-centric local stability assay extends protein–ligand identification to membrane proteins, tissues and bacteria” (Nature Structural & Molecular Biology, 2025).
The list shows a part of the results. Small differences around the control level are noise.

Protein sequences, listed by entry. Tags and fused reporters are not part of them. Lines headed by an entry give the natural chain unless they say otherwise; changes in a name come on top.
UniProt O94761: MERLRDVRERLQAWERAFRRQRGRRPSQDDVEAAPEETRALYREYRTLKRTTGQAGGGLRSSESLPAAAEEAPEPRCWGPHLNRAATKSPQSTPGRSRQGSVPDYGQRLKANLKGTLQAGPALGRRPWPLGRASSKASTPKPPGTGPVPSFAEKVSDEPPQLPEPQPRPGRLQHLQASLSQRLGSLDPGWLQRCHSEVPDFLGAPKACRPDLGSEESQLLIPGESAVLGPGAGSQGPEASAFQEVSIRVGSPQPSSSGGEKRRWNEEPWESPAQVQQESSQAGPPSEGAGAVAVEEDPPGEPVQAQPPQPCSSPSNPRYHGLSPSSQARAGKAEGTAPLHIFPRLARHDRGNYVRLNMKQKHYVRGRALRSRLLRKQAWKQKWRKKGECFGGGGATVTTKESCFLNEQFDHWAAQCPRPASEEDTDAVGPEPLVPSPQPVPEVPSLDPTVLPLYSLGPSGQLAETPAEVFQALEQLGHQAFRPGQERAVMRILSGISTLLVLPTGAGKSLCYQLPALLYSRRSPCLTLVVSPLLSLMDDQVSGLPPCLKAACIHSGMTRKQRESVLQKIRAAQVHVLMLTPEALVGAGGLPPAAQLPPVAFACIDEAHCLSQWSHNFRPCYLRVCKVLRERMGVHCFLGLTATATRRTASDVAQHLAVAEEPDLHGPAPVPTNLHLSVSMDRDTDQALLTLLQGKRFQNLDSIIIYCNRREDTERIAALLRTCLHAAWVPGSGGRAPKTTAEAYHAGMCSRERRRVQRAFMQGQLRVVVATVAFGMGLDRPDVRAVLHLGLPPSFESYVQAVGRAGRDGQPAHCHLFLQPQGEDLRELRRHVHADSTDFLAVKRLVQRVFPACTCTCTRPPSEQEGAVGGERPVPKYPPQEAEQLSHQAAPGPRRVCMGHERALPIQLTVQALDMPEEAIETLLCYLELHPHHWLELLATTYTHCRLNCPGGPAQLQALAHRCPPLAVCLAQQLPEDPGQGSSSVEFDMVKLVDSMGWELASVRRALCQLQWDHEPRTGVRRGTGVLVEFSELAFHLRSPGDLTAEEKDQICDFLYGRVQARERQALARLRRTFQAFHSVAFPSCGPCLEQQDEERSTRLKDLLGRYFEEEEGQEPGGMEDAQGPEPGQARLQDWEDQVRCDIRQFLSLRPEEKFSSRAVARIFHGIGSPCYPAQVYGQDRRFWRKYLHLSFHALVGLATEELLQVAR
UniProt O75564: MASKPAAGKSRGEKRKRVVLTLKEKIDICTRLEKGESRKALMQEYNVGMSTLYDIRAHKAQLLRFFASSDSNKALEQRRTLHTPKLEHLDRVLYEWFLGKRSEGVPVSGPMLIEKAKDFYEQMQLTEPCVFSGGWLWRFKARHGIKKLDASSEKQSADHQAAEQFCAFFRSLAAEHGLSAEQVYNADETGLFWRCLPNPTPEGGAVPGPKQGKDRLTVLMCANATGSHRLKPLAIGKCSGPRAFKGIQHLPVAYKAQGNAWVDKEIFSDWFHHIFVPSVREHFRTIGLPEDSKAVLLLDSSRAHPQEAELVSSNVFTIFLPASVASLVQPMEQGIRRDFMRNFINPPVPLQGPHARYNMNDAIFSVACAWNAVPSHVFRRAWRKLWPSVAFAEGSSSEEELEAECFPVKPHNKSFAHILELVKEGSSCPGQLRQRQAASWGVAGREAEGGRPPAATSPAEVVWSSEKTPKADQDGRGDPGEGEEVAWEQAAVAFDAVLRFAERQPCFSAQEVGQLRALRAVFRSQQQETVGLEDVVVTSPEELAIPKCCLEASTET
UniProt O75915: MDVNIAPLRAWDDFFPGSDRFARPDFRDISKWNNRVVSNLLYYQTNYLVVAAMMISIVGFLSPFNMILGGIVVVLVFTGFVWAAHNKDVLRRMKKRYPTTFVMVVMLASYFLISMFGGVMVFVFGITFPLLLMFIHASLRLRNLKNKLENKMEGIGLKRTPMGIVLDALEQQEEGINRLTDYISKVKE
UniProt O94875: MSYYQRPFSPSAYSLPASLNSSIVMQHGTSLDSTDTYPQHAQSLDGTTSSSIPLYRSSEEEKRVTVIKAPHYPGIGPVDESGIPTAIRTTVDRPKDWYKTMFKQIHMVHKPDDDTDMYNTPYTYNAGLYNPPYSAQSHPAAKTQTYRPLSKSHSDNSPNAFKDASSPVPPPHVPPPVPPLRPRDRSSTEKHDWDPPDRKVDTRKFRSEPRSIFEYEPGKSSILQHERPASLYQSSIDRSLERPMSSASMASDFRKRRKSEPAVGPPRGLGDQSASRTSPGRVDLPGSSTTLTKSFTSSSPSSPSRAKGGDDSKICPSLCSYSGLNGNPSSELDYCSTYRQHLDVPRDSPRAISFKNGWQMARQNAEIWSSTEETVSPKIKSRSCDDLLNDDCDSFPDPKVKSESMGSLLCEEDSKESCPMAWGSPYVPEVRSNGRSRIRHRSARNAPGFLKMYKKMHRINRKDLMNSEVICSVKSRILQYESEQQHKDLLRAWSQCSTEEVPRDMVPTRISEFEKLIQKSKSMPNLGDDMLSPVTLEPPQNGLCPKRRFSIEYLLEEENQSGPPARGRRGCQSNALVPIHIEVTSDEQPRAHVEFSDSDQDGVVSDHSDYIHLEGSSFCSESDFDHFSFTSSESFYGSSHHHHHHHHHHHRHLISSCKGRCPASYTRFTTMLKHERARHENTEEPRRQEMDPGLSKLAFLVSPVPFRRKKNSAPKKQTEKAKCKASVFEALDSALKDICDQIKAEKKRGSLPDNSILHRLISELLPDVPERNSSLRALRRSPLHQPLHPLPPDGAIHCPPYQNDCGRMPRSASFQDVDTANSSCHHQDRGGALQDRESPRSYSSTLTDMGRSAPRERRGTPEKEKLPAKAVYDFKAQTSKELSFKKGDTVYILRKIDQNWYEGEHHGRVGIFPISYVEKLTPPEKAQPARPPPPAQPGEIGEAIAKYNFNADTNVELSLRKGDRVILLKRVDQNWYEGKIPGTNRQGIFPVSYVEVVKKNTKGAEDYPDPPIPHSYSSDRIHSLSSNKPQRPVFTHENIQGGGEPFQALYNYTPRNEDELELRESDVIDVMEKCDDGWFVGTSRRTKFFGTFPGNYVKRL
UniProt O75937: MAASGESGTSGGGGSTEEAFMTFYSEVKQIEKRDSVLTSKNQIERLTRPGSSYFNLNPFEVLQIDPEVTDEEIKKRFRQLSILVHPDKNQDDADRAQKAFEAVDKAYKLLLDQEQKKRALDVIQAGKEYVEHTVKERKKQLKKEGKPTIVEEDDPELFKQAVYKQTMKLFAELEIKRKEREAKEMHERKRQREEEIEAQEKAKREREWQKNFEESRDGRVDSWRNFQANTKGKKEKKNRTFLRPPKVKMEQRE
UniProt O75459: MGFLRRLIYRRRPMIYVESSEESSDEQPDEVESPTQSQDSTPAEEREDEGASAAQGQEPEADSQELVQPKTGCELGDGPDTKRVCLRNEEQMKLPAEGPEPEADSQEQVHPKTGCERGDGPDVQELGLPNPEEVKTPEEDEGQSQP
UniProt O75771: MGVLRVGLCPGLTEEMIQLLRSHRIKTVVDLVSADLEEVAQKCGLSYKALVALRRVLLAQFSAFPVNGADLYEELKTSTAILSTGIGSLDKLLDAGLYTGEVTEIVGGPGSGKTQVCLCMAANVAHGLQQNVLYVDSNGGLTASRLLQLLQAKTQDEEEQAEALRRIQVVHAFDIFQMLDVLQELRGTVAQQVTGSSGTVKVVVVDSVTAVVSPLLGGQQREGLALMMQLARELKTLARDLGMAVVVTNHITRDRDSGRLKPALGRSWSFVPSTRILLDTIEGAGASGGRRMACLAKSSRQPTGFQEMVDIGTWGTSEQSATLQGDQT
UniProt O75943: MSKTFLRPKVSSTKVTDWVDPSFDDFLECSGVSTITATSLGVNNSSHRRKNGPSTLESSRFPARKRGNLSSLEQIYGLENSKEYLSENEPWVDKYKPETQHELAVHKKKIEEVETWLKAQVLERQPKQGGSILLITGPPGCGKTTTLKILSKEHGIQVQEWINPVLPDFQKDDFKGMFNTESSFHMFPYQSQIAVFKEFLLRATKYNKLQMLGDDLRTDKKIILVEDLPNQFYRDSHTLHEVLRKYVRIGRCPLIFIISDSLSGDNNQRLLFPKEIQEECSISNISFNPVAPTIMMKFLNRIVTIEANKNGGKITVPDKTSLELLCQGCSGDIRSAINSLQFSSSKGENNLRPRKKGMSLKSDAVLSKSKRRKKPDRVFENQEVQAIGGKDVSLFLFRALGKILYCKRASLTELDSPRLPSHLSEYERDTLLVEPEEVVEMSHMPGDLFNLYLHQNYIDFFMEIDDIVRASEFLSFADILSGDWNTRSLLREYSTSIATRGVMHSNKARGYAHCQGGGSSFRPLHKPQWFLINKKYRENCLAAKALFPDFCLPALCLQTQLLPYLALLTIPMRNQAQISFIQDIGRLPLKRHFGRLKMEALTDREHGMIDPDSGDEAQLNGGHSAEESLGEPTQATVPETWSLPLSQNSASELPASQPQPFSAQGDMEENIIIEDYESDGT

Compound: CN[C@@H]1C[C@H]2O[C@@](C)([C@@H]1OC)n1c3ccccc3c3c4c(c5c6ccccc6n2c5c31)C(=O)NC4 [staurosporine]
Assay: log2 fold change of tryptic peptide abundance, ligand vs vehicle (limited proteolysis) (log2 ratio); higher = more trypsin-susceptible (destabilized)
Conditions: ligand concentration: 20 uM; sample: K562 cleared lysate; digestion: 4 min, 22 C (HT-PELSA RT4min, Orbitrap Astral)

Target	log2 fold change
RECQL4 (peptide sequence: AACIHSGMTR, peptide start residue: 550) (UniProt O94761)	0.611
JRK (peptide sequence: VLYEWFLGKR, peptide start residue: 92) (UniProt O75564)	-0.578
ARL6IP5 (peptide sequence: AWDDFFPGSDR, peptide start residue: 10) (UniProt O75915)	0.128
UniProt O94875 (peptide sequence: CDDGWFVGTSR, peptide start residue: 1264)	0.0782
DNAJC8 (peptide sequence: QREEEIEAQEK, peptide start residue: 191) (UniProt O75937)	-0.132
PAGE1 (peptide sequence: TGCELGDGPDTKR, peptide start residue: 71) (UniProt O75459)	-0.178
UniProt O75771 (peptide sequence: LLQLLQAK, peptide start residue: 146)	0.16
RAD17 (peptide sequence: DSHTLHEVLRK, peptide start residue: 235) (UniProt O75943)	0.581

2 consecutive records already listed, for reference:
Target	log2 fold change
JRK (peptide sequence: VLYEWFLGKR, peptide start residue: 92) (UniProt O75564)	-0.578
ARL6IP5 (peptide sequence: AWDDFFPGSDR, peptide start residue: 10) (UniProt O75915)	0.128
